Data as given in patent US10695333B2 (NOVARTIS AG, priority 2017, dated 2020).

System: MCF-7 parental (ER wildtype) cells
Assay: cells
Conditions: Homo sapiens, MCF7, 168 h, read-out: MCF-7 proliferation Ave IC50, ESR1 WT

SMILES: CC/C(=C(\c1ccccc1)c1ccc(OCCN(C)C)cc1)c1ccccc1 [Tamoxifen, reference compound]
- IC50: 4.5 nM
